# Results: patent US20230365959A1, “METHOD FOR IMPROVING THE STABILITY OF A COMPOSITION COMPRISING A FLAVIN-DEPENDENT LACTATE DEHYDROGENASE” (KIKKOMAN CORPORATION, priority 2020, published 2023)
# Some of these results come from one statement about several compounds together.
# Tested on: lactate dehydrogenase from Pichia kudriavzevii (PkLDH)
# Assay: Thermal stability of PkLDH (residual activity ratio after heat treatment, potassium phosphate buffer)
# Type: biochemical
# Settings: PkLDH 2 U/mL; added compound 300 mM; 150 mM potassium phosphate buffer pH 7.5, 0.15% BSA; 55°C for 15 minutes; listed as sodium gluconate
# Experimental: Thermal stability of LDH can be evaluated by heating LDH at a given temperature for a given time and comparing the activity thereof before and after heating. […] The LDH activity of an LDH solution which is allowed to stand still on ice without heating is taken as 100 and the LDH activity after heating is calculated and, the residual activity ratio (ratio of remaining activity) (%) can be determined.
# More specifically, the residual activity ratio (%) can be obtained by measuring LDH activity value (a) of a solution before heat treatment or before long-term storage and LDH activity value (b) of a solution after heat treatment or after long-term storage and calculating ((b)/(a)×100). […]
# The thermal stability of LDH was evaluated by heating LDH at a given temperature for a given time and comparing the activities before and after heating. […] Further, LDH activity of an LDH solution allowed to stand still on ice without any heat treatment was measured. Based on the activity of this case without any heat treatment taken as 100, the activities of LDH solutions after heat treatment were calculated to determine the residual activity ratio (%). […]
# The activity of LDH was determined in accordance with the following procedure. […]
smiles,measurement,value
"O=C([O-])[C@H](O)[C@@H](O)[C@H](O)[C@H](O)CO.[Na+] [Sodium gluconate, sodium gluconate]",Residual activity ratio (%),≥ 50%
